This is one part of the list.
What was measured:
Assay in all cases: log2 fold change, soluble protein after heating vs DMSO (PISA); higher = thermal stabilisation; K562 lysate, 10 uM; active = over 0.2 and 3.5 SD of the protein, either way, in both replicates (recomputed)
erlotinib = compound: C#Cc1cccc(Nc2ncnc3cc(OCCOC)c(OCCOC)cc23)c1 [erlotinib]
Method in brief: (§1)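 K562 pellets were dounce-homogenised in PBS pH 7.4 with 1 mM MgCl2, and the crude extract at 1 mg/mL protein was treated with 10 μM compound for 30 min. Aliquots were heated for 3 min across 48°C-58°C, pooled, and brought to 0.5% NP-40 at 4°C; soluble protein was the supernatant after 21,000xg for 90 min. Soluble protein was quantified by TMTpro 16plex LC-MS/MS with channel sums equalised, and reported as log2 fold change in thermal stability against DMSO controls, with values from duplicates.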

The chains behind the UniProt entries cited, without tags or fusion partners. Where a name states a change or a piece, a line headed by the entry shows the natural chain unless it says otherwise.
UniProt Q96EK4, whole entry, looked up: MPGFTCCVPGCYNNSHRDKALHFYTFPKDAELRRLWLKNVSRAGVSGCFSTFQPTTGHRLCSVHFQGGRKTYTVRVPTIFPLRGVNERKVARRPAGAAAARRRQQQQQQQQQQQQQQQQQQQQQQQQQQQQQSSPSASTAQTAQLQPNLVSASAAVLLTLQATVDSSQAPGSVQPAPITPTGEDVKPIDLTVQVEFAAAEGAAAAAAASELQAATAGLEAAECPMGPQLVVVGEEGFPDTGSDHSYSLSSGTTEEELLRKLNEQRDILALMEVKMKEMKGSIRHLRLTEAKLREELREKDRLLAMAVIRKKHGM
UniProt O75204: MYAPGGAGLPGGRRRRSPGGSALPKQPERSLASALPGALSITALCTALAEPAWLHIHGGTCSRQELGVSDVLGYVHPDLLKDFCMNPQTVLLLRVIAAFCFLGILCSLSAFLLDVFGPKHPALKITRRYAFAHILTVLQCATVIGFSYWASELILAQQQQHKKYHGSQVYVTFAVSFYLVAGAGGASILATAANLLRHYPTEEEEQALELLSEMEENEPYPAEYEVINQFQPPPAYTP
UniProt Q08117: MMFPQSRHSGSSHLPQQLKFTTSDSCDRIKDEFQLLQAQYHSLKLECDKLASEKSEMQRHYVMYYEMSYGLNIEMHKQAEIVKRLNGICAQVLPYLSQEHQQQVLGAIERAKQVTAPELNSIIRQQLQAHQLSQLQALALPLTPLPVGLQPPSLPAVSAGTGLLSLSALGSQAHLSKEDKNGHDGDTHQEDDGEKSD
UniProt Q9BVK8: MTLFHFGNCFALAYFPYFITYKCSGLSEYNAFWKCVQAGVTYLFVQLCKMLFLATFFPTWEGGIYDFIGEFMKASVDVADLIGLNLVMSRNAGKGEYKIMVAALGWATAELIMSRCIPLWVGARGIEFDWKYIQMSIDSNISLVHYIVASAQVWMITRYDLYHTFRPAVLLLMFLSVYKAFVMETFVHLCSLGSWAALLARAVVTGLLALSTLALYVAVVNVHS
UniProt Q24JP5: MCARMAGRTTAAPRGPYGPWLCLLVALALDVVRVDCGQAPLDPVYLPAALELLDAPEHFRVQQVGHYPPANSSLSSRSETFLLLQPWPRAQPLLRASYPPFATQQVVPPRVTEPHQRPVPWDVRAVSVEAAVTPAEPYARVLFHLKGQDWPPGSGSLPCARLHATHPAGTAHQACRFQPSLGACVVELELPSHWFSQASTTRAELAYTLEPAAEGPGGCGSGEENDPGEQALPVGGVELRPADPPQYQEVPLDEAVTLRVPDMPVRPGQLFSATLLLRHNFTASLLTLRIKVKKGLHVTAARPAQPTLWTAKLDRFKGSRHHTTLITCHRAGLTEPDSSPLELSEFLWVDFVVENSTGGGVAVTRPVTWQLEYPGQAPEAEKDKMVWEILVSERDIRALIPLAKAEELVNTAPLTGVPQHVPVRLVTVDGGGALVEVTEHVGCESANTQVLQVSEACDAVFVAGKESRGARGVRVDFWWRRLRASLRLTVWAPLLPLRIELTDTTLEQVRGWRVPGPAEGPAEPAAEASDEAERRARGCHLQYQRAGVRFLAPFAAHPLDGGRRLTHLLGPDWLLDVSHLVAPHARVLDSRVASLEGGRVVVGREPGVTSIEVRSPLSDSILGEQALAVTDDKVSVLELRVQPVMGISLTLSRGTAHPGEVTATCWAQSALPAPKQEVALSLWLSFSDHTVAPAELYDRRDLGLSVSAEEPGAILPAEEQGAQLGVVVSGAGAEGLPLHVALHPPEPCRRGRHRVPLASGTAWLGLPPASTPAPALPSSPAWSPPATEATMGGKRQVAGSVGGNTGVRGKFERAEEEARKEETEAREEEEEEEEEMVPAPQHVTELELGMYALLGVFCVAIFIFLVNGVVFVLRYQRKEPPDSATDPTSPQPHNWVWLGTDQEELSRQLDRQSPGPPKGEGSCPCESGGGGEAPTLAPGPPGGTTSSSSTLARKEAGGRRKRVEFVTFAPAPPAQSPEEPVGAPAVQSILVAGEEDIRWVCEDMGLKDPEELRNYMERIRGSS

[1] = compound: C/C(=N\NC(=O)C1=CC(=CC=C1)S(=O)(=O)N2CCOCC2)/C3=C(C=CC(=C3)Cl)O
Method in brief: as §1

[2] = compound: C1=CC(=CC=C1C2=NC3=C(N2)C=C(C=C3)C(=O)N)OC4=CC=C(C=C4)Cl
Method in brief: as §1

[3] = compound: C1=CC2=C(C=CC(=C2)/C=C\3/C(=O)NC(=NCC4=CC=CS4)S3)N=C1
Method in brief: as §1

[4] = compound: C1=CC2=NC=CN=C2C=C1/C=C/3\C(=O)NC(=O)S3
Method in brief: as §1

[5] = compound: C1=CC=C(C=C1)C2=NC(=C(N2)C3=CC=NC=C3)C4=CC(=C(C=C4)Cl)O
Method in brief: as §1

[6] = compound: C1=CC=C2C(=C1)C3=NNC4=CC=CC(=C43)C2=O
Method in brief: as §1

[7] = compound: C1CCN(C1)C(=O)NC2=CC=CC(=C2)NC3=NC=C(C(=N3)NCCC4=CN=CN4)Br
Method in brief: as §1

[8] = compound: C1CN(CCC1(CC2=CC=C(C=C2)Cl)N)C3=NC=NC4=C3C=CN4
Method in brief: as §1

IRAK-1-4 Inhibitor I = compound: C1COCCN1CCN2C3=CC=CC=C3N=C2NC(=O)C4=CC(=CC=C4)[N+](=O)[O-] [IRAK-1-4 Inhibitor I]
Method in brief: as §1

ibrutinib = compound: C=CC(=O)N1CCC[C@@H](n2nc(-c3ccc(Oc4ccccc4)cc3)c3c(N)ncnc32)C1 [ibrutinib]
Method in brief: as §1

[9] = compound: CC(=O)c1cnc2ccc(-c3cc(Cl)c(O)c(Cl)c3)nc2c1N[C@H]1CC[C@H](CN(C)C)CC1
Method in brief: as §1

ralimetinib = compound: CC(C)(C)Cn1c(N)nc2ccc(-c3[nH]c(C(C)(C)C)nc3-c3ccc(F)cc3)nc21 [ralimetinib]
Method in brief: as §1

[10] = compound: CC(C)(O)CC(=O)NCCn1ccc2ncnc(Nc3ccc(Oc4cccc(C(F)(F)F)c4)c(Cl)c3)c21
Method in brief: as §1

[11] = compound: CC(C)C1=C2N=C(C=C(N2N=C1)NCC3=CC=CC=C3)NCCCCCCN
Method in brief: as §1

[12] = compound: CC1=C(C(CC(=O)N1)C2=CC=C(C=C2)C(F)(F)F)C(=O)NC3=C(C=C4C(=C3)C=NN4)F
Method in brief: as §1

[13] = compound: CC1=C(C2=C(C=C1)C(=O)C3=CC=CC=C3N2CCCN)C
Method in brief: as §1

[14] = compound: CC1=C(C=C(C=C1)NC(=O)C2=CC(=CC=C2)N(C)C)NC(=O)C3=CC=C(C=C3)O
Method in brief: as §1

[15] = compound: CC1=CC=C(C=C1)SC2=C3C=C(SC3=CN=C2)C(=O)N
Method in brief: as §1

[16] = compound: CC1=C(C=C(C=C1)NC(=O)C2=CC(=CC=C2)C(C)(C)C#N)NC3=CC4=C(C=C3)N=CN(C4=O)C
Method in brief: as §1

Measured: log2 fold change

THAP11 (UniProt Q96EK4)
inactive: erlotinib 0.072 | [1] 0.174 | [2] 0.08 | [3] 0.008 | [4] 0.044 | [5] -0.04 | [6] -0.045 | [7] -0.027 | [8] 0.004 | IRAK-1-4 Inhibitor I -0.016 | ibrutinib -0.034 | [9] -0.107 | ralimetinib 0.096 | [10] -0.028 | [11] -0.09 | [12] 0.017 | [13] -0.201 | [14] 0.05 | [15] 0.028

TMEM127 (UniProt O75204)
inactive: erlotinib -0.017 | [1] 0.029 | [2] 0.066 | [3] -0.15 | [4] -0.209 | [6] -0.106 | [7] 0 | [8] 0.103 | ibrutinib -0.106 | [11] -0.047 | [13] 0.054

TLE5 isoform 2 (UniProt Q08117)
inactive: erlotinib 0.007 | [1] 0.026 | [2] 0.111 | [3] -0.003 | [4] 0.159 | [5] -0.08 | [6] -0.056 | [7] 0.012 | [8] -0.006 | IRAK-1-4 Inhibitor I 0.077 | ibrutinib 0.128 | [9] 0.033 | ralimetinib 0.03 | [10] 0.039 | [11] 0.024 | [12] 0.083 | [13] -0.074 | [16] -0.021 | [14] -0.02 | [15] 0.006

TKT, A0A0B4J1R6
inactive: erlotinib -0.117 | [2] -0.095 | [5] -0.035 | IRAK-1-4 Inhibitor I 0.118 | [9] -0.047 | ralimetinib 0.107 | [10] -0.186 | [11] -0.073 | [12] -0.067 | [13] -0.045 | [16] -0.084 | [14] -0.109 | [15] -0.042

TMEM147 (UniProt Q9BVK8)
inactive: erlotinib -0.111 | [2] -0.089 | [4] 0.004 | [5] -0.03 | [7] -0.042 | [8] -0.133 | IRAK-1-4 Inhibitor I 0.042 | ibrutinib -0.048 | [9] -0.07 | ralimetinib -0.045 | [10] -0.053 | [11] 0.185 | [12] -0.012 | [16] -0.035 | [14] 0.008 | [15] 0.028

TMEM132A isoform 2 (UniProt Q24JP5)
inactive: erlotinib -0.031 | [2] -0.009 | [5] -0.064 | [7] 0.042 | [8] 0.068 | IRAK-1-4 Inhibitor I 0.101 | [9] 0.676 | ralimetinib 0.065 | [10] -0.194 | [11] 0.03 | [16] 0.05 | [14] 0.015 | [15] 0.019
